Some of the results follow.
Columns and labels:
Assay in all cases: glycan array binding signal (z-score within array); higher = stronger binding
Settings in all cases: glycan notation: IUPAC condensed, linker removed
[1] = target: GlcNAc(b1-2)[GlcNAc(b1-4)]Man(a1-3)[GlcNAc(b1-4)][GlcNAc(b1-2)[GlcNAc(b1-6)]Man(a1-6)]Man(b1-4)GlcNAc(b1-4)GlcNAc
Summary of the method: (§1)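 Columns mapping to the same glycan were averaged after glycan names were converted to IUPAC-condensed notation. The data come from 3228 arrays in the Consortium for Functional Glycomics database, limited to those with an available protein sequence. Binding is reported as a within-array Z-score averaged across arrays of one protein sequence and across linkers.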

[2] = target: GlcNAc(b1-2)[GlcNAc(b1-4)]Man(a1-3)[GlcNAc(b1-4)][GlcNAc(b1-2)[GlcNAc(b1-6)]Man(a1-6)]Man(b1-4)GlcNAc(b1-4)[Fuc(a1-6)]GlcNAc
Summary of the method: as §1

[3] = target: GlcNAc(b1-2)[GlcNAc(b1-6)]Man(a1-6)[GlcNAc(b1-2)Man(a1-3)]Man(b1-4)GlcNAc(b1-4)GlcNAc
Summary of the method: as §1

[4] = target: GlcNAc(b1-2)[GlcNAc(b1-6)]Man(a1-6)[GlcNAc(b1-2)Man(a1-3)]Man(b1-4)GlcNAc(b1-4)[Fuc(a1-6)]GlcNAc
Summary of the method: as §1

[5] = target: GlcNAc(b1-2)[GlcNAc(b1-6)]Man(a1-6)[GlcNAc(b1-4)][GlcNAc(b1-2)Man(a1-3)]Man(b1-4)GlcNAc(b1-4)GlcNAc
Summary of the method: as §1

GlcNAc(b1-3)Fuc = target: GlcNAc(b1-3)Fuc
Summary of the method: as §1

GlcNAc(b1-3)Gal = target: GlcNAc(b1-3)Gal
Summary of the method: as §1

[6] = target: GlcNAc(b1-3)Gal(b1-3)GalNAc
Summary of the method: as §1

GlcNAc(b1-3)Gal(b1-4)Glc = target: GlcNAc(b1-3)Gal(b1-4)Glc
Summary of the method: as §1

[7] = target: GlcNAc(b1-3)Gal(b1-4)GlcNAc
Summary of the method: as §1

[8] = target: GlcNAc(b1-3)Gal(b1-4)GlcNAc(b1-2)Man(a1-3)[GlcNAc(b1-3)Gal(b1-4)GlcNAc(b1-2)Man(a1-6)]Man(b1-4)GlcNAc(b1-4)GlcNAc
Summary of the method: as §1

[9] = target: GlcNAc(b1-3)Gal(b1-4)GlcNAc(b1-2)Man(a1-3)[GlcNAc(b1-3)Gal(b1-4)GlcNAc(b1-2)Man(a1-6)]Man(b1-4)GlcNAc(b1-4)[Fuc(a1-6)]GlcNAc
Summary of the method: as §1

[10] = target: GlcNAc(b1-3)Gal(b1-4)GlcNAc(b1-2)[GlcNAc(b1-3)Gal(b1-4)GlcNAc(b1-6)]Man(a1-6)[GlcNAc(b1-3)Gal(b1-4)GlcNAc(b1-2)Man(a1-3)]Man(b1-4)GlcNAc(b1-4)GlcNAc
Summary of the method: as §1

[11] = target: GlcNAc(b1-3)Gal(b1-4)GlcNAc(b1-3)Gal(b1-4)GlcNAc
Summary of the method: as §1

[12] = target: GlcNAc(b1-3)Gal(b1-4)GlcNAc(b1-3)Gal(b1-4)GlcNAc(b1-2)Man(a1-3)[GlcNAc(b1-3)Gal(b1-4)GlcNAc(b1-3)Gal(b1-4)GlcNAc(b1-2)Man(a1-6)]Man(b1-4)GlcNAc(b1-4)GlcNAc
Summary of the method: as §1

[13] = target: GlcNAc(b1-3)Gal(b1-4)GlcNAc(b1-3)Gal(b1-4)GlcNAc(b1-2)Man(a1-3)[GlcNAc(b1-3)Gal(b1-4)GlcNAc(b1-3)Gal(b1-4)GlcNAc(b1-2)Man(a1-6)]Man(b1-4)GlcNAc(b1-4)[Fuc(a1-6)]GlcNAc
Summary of the method: as §1

[14] = target: GlcNAc(b1-3)Gal(b1-4)GlcNAc(b1-3)Gal(b1-4)GlcNAc(b1-2)[GlcNAc(b1-3)Gal(b1-4)GlcNAc(b1-3)Gal(b1-4)GlcNAc(b1-6)]Man(a1-6)[GlcNAc(b1-3)Gal(b1-4)GlcNAc(b1-3)Gal(b1-4)GlcNAc(b1-2)Man(a1-3)]Man(b1-4)GlcNAc(b1-4)[Fuc(a1-6)]GlcNAc
Summary of the method: as §1

[15] = target: GlcNAc(b1-3)Gal(b1-4)GlcNAc(b1-3)Gal(b1-4)GlcNAc(b1-3)Gal(b1-4)GlcNAc(b1-2)Man(a1-3)[GlcNAc(b1-3)Gal(b1-4)GlcNAc(b1-3)Gal(b1-4)GlcNAc(b1-3)Gal(b1-4)GlcNAc(b1-2)Man(a1-6)]Man(b1-4)GlcNAc(b1-4)GlcNAc
Summary of the method: as §1

[16] = target: GlcNAc(b1-3)Gal(b1-4)GlcNAc(b1-3)Gal(b1-4)GlcNAc(b1-3)Gal(b1-4)GlcNAc(b1-2)Man(a1-3)[GlcNAc(b1-3)Gal(b1-4)GlcNAc(b1-3)Gal(b1-4)GlcNAc(b1-3)Gal(b1-4)GlcNAc(b1-2)Man(a1-6)]Man(b1-4)GlcNAc(b1-4)[Fuc(a1-6)]GlcNAc
Summary of the method: as §1

[17] = target: GlcNAc(b1-3)Gal(b1-4)GlcNAc(b1-3)Gal(b1-4)GlcNAc(b1-3)Gal(b1-4)GlcNAc(b1-2)[GlcNAc(b1-3)Gal(b1-4)GlcNAc(b1-3)Gal(b1-4)GlcNAc(b1-3)Gal(b1-4)GlcNAc(b1-6)]Man(a1-6)[GlcNAc(b1-3)Gal(b1-4)GlcNAc(b1-3)Gal(b1-4)GlcNAc(b1-3)Gal(b1-4)GlcNAc(b1-2)Man(a1-3)]Man(b1-4)GlcNAc(b1-4)[Fuc(a1-6)]GlcNAc
Summary of the method: as §1

[18] = target: GlcNAc(b1-3)Gal(b1-4)GlcNAc(b1-3)Gal(b1-4)GlcNAc(b1-3)Gal(b1-4)GlcNAc(b1-3)Gal(b1-4)GlcNAc(b1-2)Man(a1-3)[GlcNAc(b1-3)Gal(b1-4)GlcNAc(b1-3)Gal(b1-4)GlcNAc(b1-3)Gal(b1-4)GlcNAc(b1-3)Gal(b1-4)GlcNAc(b1-2)Man(a1-6)]Man(b1-4)GlcNAc(b1-4)GlcNAc
Summary of the method: as §1

[19] = target: GlcNAc(b1-3)Gal(b1-4)GlcNAc(b1-3)Gal(b1-4)GlcNAc(b1-3)Gal(b1-4)GlcNAc(b1-3)Gal(b1-4)GlcNAc(b1-2)Man(a1-3)[GlcNAc(b1-3)Gal(b1-4)GlcNAc(b1-3)Gal(b1-4)GlcNAc(b1-3)Gal(b1-4)GlcNAc(b1-3)Gal(b1-4)GlcNAc(b1-2)Man(a1-6)]Man(b1-4)GlcNAc(b1-4)[Fuc(a1-6)]GlcNAc
Summary of the method: as §1

[20] = target: GlcNAc(b1-3)Gal(b1-4)GlcNAc(b1-3)Gal(b1-4)GlcNAc(b1-3)Gal(b1-4)GlcNAc(b1-3)Gal(b1-4)GlcNAc(b1-2)[GlcNAc(b1-3)Gal(b1-4)GlcNAc(b1-3)Gal(b1-4)GlcNAc(b1-3)Gal(b1-4)GlcNAc(b1-3)Gal(b1-4)GlcNAc(b1-6)]Man(a1-6)[GlcNAc(b1-3)Gal(b1-4)GlcNAc(b1-3)Gal(b1-4)GlcNAc(b1-3)Gal(b1-4)GlcNAc(b1-3)Gal(b1-4)GlcNAc(b1-2)Man(a1-3)]Man(b1-4)GlcNAc(b1-4)[Fuc(a1-6)]GlcNAc
Summary of the method: as §1

[21] = target: GlcNAc(b1-3)Gal(b1-4)GlcNAc(b1-3)Gal(b1-4)GlcNAc(b1-3)GalNAc
Summary of the method: as §1

[22] = target: GlcNAc(b1-3)Gal(b1-4)GlcNAc(b1-3)GalNAc
Summary of the method: as §1

[23] = target: GlcNAc(b1-3)Gal(b1-4)GlcNAc(b1-3)[GlcNAc(b1-3)Gal(b1-4)GlcNAc(b1-3)]GalNAc
Summary of the method: as §1

[24] = target: GlcNAc(b1-3)Gal(b1-4)GlcNAc(b1-6)[Gal(b1-3)]GalNAc
Summary of the method: as §1

[25] = target: GlcNAc(b1-3)Gal(b1-4)GlcNAc(b1-6)[GlcNAc(b1-3)Gal(b1-3)]GalNAc
Summary of the method: as §1

[26] = target: GlcNAc(b1-3)Gal(b1-4)GlcNAc(b1-6)[GlcNAc(b1-3)]Gal(b1-4)GlcNAc
Summary of the method: as §1

GlcNAc(b1-3)GalNAc = target: GlcNAc(b1-3)GalNAc
Summary of the method: as §1

GlcNAc(b1-3)Man = target: GlcNAc(b1-3)Man
Summary of the method: as §1

[27] = target: GlcNAc(b1-3)[GlcNAc(b1-4)][GlcNAc(b1-6)]GlcNAc
Summary of the method: as §1

[28] = target: GlcNAc(b1-3)[GlcNAc(b1-6)]Gal(b1-4)GlcNAc
Summary of the method: as §1

[29] = target: GlcNAc(b1-3)[GlcNAc(b1-6)]GalNAc
Summary of the method: as §1

[30] = target: GlcNAc(b1-4)Gal(b1-4)GlcNAc
Summary of the method: as §1

GlcNAc(b1-4)GlcNAc = target: GlcNAc(b1-4)GlcNAc
Summary of the method: as §1

[31] = target: GlcNAc(b1-4)GlcNAc(b1-4)GlcNAc
Summary of the method: as §1

[32] = target: GlcNAc(b1-4)GlcNAc(b1-4)GlcNAc(b1-4)GlcNAc(b1-4)GlcNAc
Summary of the method: as §1

B1: PX9961Q-bfa-504-27-504 (Bacteroides fragilis) (protein)
chain: NDWLDRKPADGIPSEDAITNYNDALTARTGMYDGIQGNSNATSYYGARMFYYGDVRADDMQARTQGMRSSSCYEMLYTVDDAPNMWNIPYNVIRRANRLIEAINEKKVTDATEAQIGKIYSEALVVRALVHFDLVRIYGMPYTADNGASLGVPVIVKPLERNDLPSRNTVAEVYTQVITDLTDAINSGYLAKDQTPGYINEWAAKALLTRVYLTKGDNENALKVAEDIITNSPYKLWTNEEYVNAWYKSNGAHTNEMIFEVVNASNDDWTDRNGIAYLLNENGYADAIVTKSFMNMLSQDPKDVRIGMVLPAQYDKDLQEEYGDAKIFINKFPADKDDVGEMRLNNLPLLRLSEVYLSAAEAAAKLGGHQDKAAKYLNEIVQRANPEAKAISEADATVERIILERRKEMIGEGQRYFDALRNNETIVRYKDEGDKGYHYSLIKESQSFDRTYFRAILPIPVDETNVNPNLRAQQNPGY
For B1, the “glycan array binding signal (z-score)” value [1] was -0.672, the “glycan array binding signal (z-score)” value [2] was -0.492 and the “glycan array binding signal (z-score)” value [3] was -0.225. For the same binder, the “glycan array binding signal (z-score)” value [4] was 0.418, the “glycan array binding signal (z-score)” value [5] was -0.107 and the “glycan array binding signal (z-score)” value (GlcNAc(b1-3)Fuc) was -0.326. The “glycan array binding signal (z-score)” value (GlcNAc(b1-3)Gal) was -0.232, the “glycan array binding signal (z-score)” value [6] was 0.085 and the “glycan array binding signal (z-score)” value (GlcNAc(b1-3)Gal(b1-4)Glc) was -0.949. The “glycan array binding signal (z-score)” value [7] was -0.27, the “glycan array binding signal (z-score)” value [8] was 0.607 and the “glycan array binding signal (z-score)” value [9] was -0.621. For the same binder, the “glycan array binding signal (z-score)” value [10] was 0.617, the “glycan array binding signal (z-score)” value [11] was -0.184 and the “glycan array binding signal (z-score)” value [12] was 0.656. For the same binder, the “glycan array binding signal (z-score)” value [13] was 0.781, the “glycan array binding signal (z-score)” value [14] was -0.347 and the “glycan array binding signal (z-score)” value [15] was -0.679. The “glycan array binding signal (z-score)” value [16] was 2.65, the “glycan array binding signal (z-score)” value [17] was 0.958 and the “glycan array binding signal (z-score)” value [18] was -0.236. For the same binder, the “glycan array binding signal (z-score)” value [19] was 0.345, the “glycan array binding signal (z-score)” value [20] was 0.482 and the “glycan array binding signal (z-score)” value [21] was -0.298. The “glycan array binding signal (z-score)” value [22] was 0.039, the “glycan array binding signal (z-score)” value [23] was -0.103 and the “glycan array binding signal (z-score)” value [24] was -0.391. The “glycan array binding signal (z-score)” value [25] was 1.69, the “glycan array binding signal (z-score)” value [26] was 0.152 and the “glycan array binding signal (z-score)” value (GlcNAc(b1-3)GalNAc) was -0.328. The “glycan array binding signal (z-score)” value (GlcNAc(b1-3)Man) was 0.083, the “glycan array binding signal (z-score)” value [27] was -0.908 and the “glycan array binding signal (z-score)” value [28] was -1.1. For the same binder, the “glycan array binding signal (z-score)” value [29] was -0.04, the “glycan array binding signal (z-score)” value [30] was -0.752 and the “glycan array binding signal (z-score)” value (GlcNAc(b1-4)GlcNAc) was 0.278. The “glycan array binding signal (z-score)” value [31] was -0.077 and the “glycan array binding signal (z-score)” value [32] was -0.574.
